PubChem BioAssay AID1159578 – Peter MacCallum Cancer Centre | 2015

Test: 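Knock-downs that alter how fast lymphatic endothelial cells migrate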 (primary screen)
Cells: human lymphatic endothelial cells
Reagents: siRNA pool against human genes, 40 nM
Time to read-out: 48 h after transfection
Measurement: 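High-content imaging of dye-stained cells in a scratch assay measures filled wound area and nuclei per well; duplicate means given as ratio to mock and robust z-score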
Scale: migration robust z-score: higher = faster migration into the scratch; migration relative to mock: higher = more scratch area covered than mock; nuclei per well: higher = more cells in the well
Call rule: 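Pools averaging fewer than 3300 nuclei are never called; remaining pools count as changed when migration robust z lies outside -2 to 2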
Calls: active = migration changed; inactive = no migration change, or too few cells
Shown is one part, drawn at random, of about 18,000 reagents. About 1,030 of all reagents (5.7%) were called active. 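Inactive calls also include pools with fewer than 3300 nuclei, whose migration was not assessed.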 Raw values are not corrected between plates.

gene	migration robust z-score	migration class with cell-count check	migration relative to mock	nuclei per well, duplicate mean	activity call
ACTR1A (actin related protein 1A)	0.14	migration z between -2 and 2; enough cells	0.92	6084	inactive
ZNF454 (zinc finger protein 454)	1.03	migration z between -2 and 2; enough cells	1.16	5090	inactive
ZNF189 (zinc finger protein 189)	0.95	migration z between -2 and 2; enough cells	1.13	6176	inactive
MEN1 (menin 1)	-1.03	migration z between -2 and 2; enough cells	0.6	4620	inactive
CNGB1 (cyclic nucleotide gated channel subunit beta 1)	-1.34	migration z between -2 and 2; enough cells	0.55	6022	inactive
SPAG11A (sperm associated antigen 11A)	0.26	migration z between -2 and 2; enough cells	0.96	5382	inactive
EFHB (EF-hand domain family member B)	1.02	migration z between -2 and 2; enough cells	1.15	6786	inactive
NUP188 (nucleoporin 188)	-0.39	migration z between -2 and 2; enough cells	0.78	5832	inactive
H4C16 (H4 histone 16)	-1.87	migration z between -2 and 2; enough cells	0.4	5310	inactive
TFR2 (transferrin receptor 2)	-0.26	migration z between -2 and 2; enough cells	0.76	6084	inactive
BOK (BCL2 family apoptosis regulator BOK)	0.36	migration z between -2 and 2; enough cells	0.98	5783	inactive
SLC35G5	0.28	migration z between -2 and 2; enough cells	0.96	6178	inactive
NDUFB4 (NADH:ubiquinone oxidoreductase subunit B4)	-2.02	migration z below -2; enough cells	0.42	3566	active
SRRM1 (serine and arginine repetitive matrix 1)	1.24	migration z between -2 and 2; enough cells	1.21	5418	inactive
ATP8B1 (ATPase phospholipid transporting 8B1)	-0.16	migration z between -2 and 2; enough cells	0.78	4636	inactive
SBSN (suprabasin)	0.83	migration z between -2 and 2; enough cells	1.1	5926	inactive
P3H3 (prolyl 3-hydroxylase 3)	-0.13	migration z between -2 and 2; enough cells	0.78	4572	inactive
PCGF5 (polycomb group ring finger 5)	-0.32	migration z between -2 and 2; enough cells	0.74	6246	inactive
OR5V1 (olfactory receptor family 5 subfamily V member 1)	-0.92	migration z between -2 and 2; enough cells	0.64	5358	inactive
GAL (galanin and GMAP prepropeptide)	0.74	migration z between -2 and 2; enough cells	1.07	6276	inactive
NFYC (nuclear transcription factor Y subunit gamma)	-1.72	migration z between -2 and 2; enough cells	0.44	6283	inactive
OR52E6 (olfactory receptor family 52 subfamily E member 6)	-1.51	migration z between -2 and 2; enough cells	0.5	5382	inactive
UQCRC2 (ubiquinol-cytochrome c reductase core protein 2)	0.16	migration z between -2 and 2; enough cells	0.84	5853	inactive
MACO1 (macoilin 1)	0.58	migration z between -2 and 2; enough cells	1.04	6446	inactive
SPRY4 (sprouty RTK signaling antagonist 4)	-0.42	migration z between -2 and 2; enough cells	0.77	5324	inactive
ABCB6 (ATP binding cassette subfamily B member 6 (LAN blood group))	1.84	migration z between -2 and 2; enough cells	1.16	6525	inactive
AUNIP (aurora kinase A and ninein interacting protein)	-0.75	migration z between -2 and 2; enough cells	0.69	5252	inactive
UTP3 (UTP3 small subunit processome component)	0.06	migration z between -2 and 2; enough cells	0.9	5523	inactive
DEF6 (DEF6 guanine nucleotide exchange factor)	-0.4	migration z between -2 and 2; enough cells	0.78	5798	inactive
GLI2 (GLI family zinc finger 2)	0.1	migration z between -2 and 2; enough cells	0.91	6394	inactive
ZMYM2 (zinc finger MYM-type containing 2)	0.09	migration z between -2 and 2; enough cells	0.91	5550	inactive
ACOT12 (acyl-CoA thioesterase 12)	-0.08	migration z between -2 and 2; enough cells	0.79	5600	inactive
DAGLA (diacylglycerol lipase alpha)	-1.3	migration z between -2 and 2; enough cells	0.55	5612	inactive
IFI27L2 (interferon alpha inducible protein 27 like 2)	-1.69	migration z between -2 and 2; enough cells	0.45	3818	inactive
OR5K3 (olfactory receptor family 5 subfamily K member 3)	0.57	migration z between -2 and 2; enough cells	1.04	5756	inactive
C1orf146 (chromosome 1 open reading frame 146)	-0.52	migration z between -2 and 2; enough cells	0.75	5936	inactive
SRSF1 (serine and arginine rich splicing factor 1)	-3.48	migration z below -2; enough cells	-0.01	3383	active
ZNF781 (zinc finger protein 781 (pseudogene))	2.04	migration z above 2; enough cells	1.41	6480	active
SPESP1 (sperm equatorial segment protein 1)	0.22	migration z between -2 and 2; enough cells	0.94	4054	inactive
LTB (lymphotoxin beta)	1.02	migration z between -2 and 2; enough cells	1.15	5046	inactive
OR6C3 (olfactory receptor family 6 subfamily C member 3)	0.02	migration z between -2 and 2; enough cells	0.89	4864	inactive
SPATA6 (spermatogenesis associated 6)	-0.16	migration z between -2 and 2; enough cells	0.84	6761	inactive
CDH8 (cadherin 8)	0.35	migration z between -2 and 2; enough cells	0.97	5798	inactive
PHKG2 (phosphorylase kinase catalytic subunit gamma 2)	-2.41	migration z below -2; enough cells	0.34	4191	active
AQP10 (aquaporin 10)	0.2	migration z between -2 and 2; enough cells	0.94	6786	inactive
GLTP (glycolipid transfer protein)	0.04	migration z between -2 and 2; enough cells	0.89	4706	inactive
HERC1	-0.47	migration z between -2 and 2; enough cells	0.71	4693	inactive
BOLL (boule RNA binding protein)	0.47	migration z between -2 and 2; enough cells	0.9	5610	inactive
HSPG2 (heparan sulfate proteoglycan 2)	-0.74	migration z between -2 and 2; enough cells	0.7	5664	inactive
IL1RN (interleukin 1 receptor antagonist)	0.34	migration z between -2 and 2; enough cells	0.87	5899	inactive
SUN1 (Sad1 and UNC84 domain containing 1)	-0.35	migration z between -2 and 2; enough cells	0.8	5066	inactive
TMED6 (transmembrane p24 trafficking protein 6)	0.68	migration z between -2 and 2; enough cells	1.06	7192	inactive
ZNF155 (zinc finger protein 155)	0.44	migration z between -2 and 2; enough cells	1	6482	inactive
KLF2 (KLF transcription factor 2)	0.29	migration z between -2 and 2; enough cells	0.86	5692	inactive
MYOD1 (myogenic differentiation 1)	0.26	migration z between -2 and 2; enough cells	0.86	6943	inactive
ALG9 (ALG9 alpha-1,2-mannosyltransferase)	1.06	migration z between -2 and 2; enough cells	1.16	6156	inactive
PRMT1 (protein arginine methyltransferase 1)	-1.82	migration z between -2 and 2; enough cells	0.45	5854	inactive

An excerpt of the results above, as a working copy:
gene	migration robust z-score	migration class with cell-count check	migration relative to mock	nuclei per well, duplicate mean	activity call
CDH8 (cadherin 8)	0.35	migration z between -2 and 2; enough cells	0.97	5798	inactive
PHKG2 (phosphorylase kinase catalytic subunit gamma 2)	-2.41	migration z below -2; enough cells	0.34	4191	active
AQP10 (aquaporin 10)	0.2	migration z between -2 and 2; enough cells	0.94	6786	inactive
